Reference: the supplement of paper PMC11732987, “Enantioselective OTUD7B fragment discovery through chemoproteomics screening and high-throughput optimisation” (Communications Chemistry, 2025)
The other results are listed elsewhere or left out. The data scatter; read single values as rough.

Amino acid sequences for entries named in this document (tags omitted). A change or cut given only in a name is not applied to a line headed by its entry. Residues count along the entry.
UniProt Q99996: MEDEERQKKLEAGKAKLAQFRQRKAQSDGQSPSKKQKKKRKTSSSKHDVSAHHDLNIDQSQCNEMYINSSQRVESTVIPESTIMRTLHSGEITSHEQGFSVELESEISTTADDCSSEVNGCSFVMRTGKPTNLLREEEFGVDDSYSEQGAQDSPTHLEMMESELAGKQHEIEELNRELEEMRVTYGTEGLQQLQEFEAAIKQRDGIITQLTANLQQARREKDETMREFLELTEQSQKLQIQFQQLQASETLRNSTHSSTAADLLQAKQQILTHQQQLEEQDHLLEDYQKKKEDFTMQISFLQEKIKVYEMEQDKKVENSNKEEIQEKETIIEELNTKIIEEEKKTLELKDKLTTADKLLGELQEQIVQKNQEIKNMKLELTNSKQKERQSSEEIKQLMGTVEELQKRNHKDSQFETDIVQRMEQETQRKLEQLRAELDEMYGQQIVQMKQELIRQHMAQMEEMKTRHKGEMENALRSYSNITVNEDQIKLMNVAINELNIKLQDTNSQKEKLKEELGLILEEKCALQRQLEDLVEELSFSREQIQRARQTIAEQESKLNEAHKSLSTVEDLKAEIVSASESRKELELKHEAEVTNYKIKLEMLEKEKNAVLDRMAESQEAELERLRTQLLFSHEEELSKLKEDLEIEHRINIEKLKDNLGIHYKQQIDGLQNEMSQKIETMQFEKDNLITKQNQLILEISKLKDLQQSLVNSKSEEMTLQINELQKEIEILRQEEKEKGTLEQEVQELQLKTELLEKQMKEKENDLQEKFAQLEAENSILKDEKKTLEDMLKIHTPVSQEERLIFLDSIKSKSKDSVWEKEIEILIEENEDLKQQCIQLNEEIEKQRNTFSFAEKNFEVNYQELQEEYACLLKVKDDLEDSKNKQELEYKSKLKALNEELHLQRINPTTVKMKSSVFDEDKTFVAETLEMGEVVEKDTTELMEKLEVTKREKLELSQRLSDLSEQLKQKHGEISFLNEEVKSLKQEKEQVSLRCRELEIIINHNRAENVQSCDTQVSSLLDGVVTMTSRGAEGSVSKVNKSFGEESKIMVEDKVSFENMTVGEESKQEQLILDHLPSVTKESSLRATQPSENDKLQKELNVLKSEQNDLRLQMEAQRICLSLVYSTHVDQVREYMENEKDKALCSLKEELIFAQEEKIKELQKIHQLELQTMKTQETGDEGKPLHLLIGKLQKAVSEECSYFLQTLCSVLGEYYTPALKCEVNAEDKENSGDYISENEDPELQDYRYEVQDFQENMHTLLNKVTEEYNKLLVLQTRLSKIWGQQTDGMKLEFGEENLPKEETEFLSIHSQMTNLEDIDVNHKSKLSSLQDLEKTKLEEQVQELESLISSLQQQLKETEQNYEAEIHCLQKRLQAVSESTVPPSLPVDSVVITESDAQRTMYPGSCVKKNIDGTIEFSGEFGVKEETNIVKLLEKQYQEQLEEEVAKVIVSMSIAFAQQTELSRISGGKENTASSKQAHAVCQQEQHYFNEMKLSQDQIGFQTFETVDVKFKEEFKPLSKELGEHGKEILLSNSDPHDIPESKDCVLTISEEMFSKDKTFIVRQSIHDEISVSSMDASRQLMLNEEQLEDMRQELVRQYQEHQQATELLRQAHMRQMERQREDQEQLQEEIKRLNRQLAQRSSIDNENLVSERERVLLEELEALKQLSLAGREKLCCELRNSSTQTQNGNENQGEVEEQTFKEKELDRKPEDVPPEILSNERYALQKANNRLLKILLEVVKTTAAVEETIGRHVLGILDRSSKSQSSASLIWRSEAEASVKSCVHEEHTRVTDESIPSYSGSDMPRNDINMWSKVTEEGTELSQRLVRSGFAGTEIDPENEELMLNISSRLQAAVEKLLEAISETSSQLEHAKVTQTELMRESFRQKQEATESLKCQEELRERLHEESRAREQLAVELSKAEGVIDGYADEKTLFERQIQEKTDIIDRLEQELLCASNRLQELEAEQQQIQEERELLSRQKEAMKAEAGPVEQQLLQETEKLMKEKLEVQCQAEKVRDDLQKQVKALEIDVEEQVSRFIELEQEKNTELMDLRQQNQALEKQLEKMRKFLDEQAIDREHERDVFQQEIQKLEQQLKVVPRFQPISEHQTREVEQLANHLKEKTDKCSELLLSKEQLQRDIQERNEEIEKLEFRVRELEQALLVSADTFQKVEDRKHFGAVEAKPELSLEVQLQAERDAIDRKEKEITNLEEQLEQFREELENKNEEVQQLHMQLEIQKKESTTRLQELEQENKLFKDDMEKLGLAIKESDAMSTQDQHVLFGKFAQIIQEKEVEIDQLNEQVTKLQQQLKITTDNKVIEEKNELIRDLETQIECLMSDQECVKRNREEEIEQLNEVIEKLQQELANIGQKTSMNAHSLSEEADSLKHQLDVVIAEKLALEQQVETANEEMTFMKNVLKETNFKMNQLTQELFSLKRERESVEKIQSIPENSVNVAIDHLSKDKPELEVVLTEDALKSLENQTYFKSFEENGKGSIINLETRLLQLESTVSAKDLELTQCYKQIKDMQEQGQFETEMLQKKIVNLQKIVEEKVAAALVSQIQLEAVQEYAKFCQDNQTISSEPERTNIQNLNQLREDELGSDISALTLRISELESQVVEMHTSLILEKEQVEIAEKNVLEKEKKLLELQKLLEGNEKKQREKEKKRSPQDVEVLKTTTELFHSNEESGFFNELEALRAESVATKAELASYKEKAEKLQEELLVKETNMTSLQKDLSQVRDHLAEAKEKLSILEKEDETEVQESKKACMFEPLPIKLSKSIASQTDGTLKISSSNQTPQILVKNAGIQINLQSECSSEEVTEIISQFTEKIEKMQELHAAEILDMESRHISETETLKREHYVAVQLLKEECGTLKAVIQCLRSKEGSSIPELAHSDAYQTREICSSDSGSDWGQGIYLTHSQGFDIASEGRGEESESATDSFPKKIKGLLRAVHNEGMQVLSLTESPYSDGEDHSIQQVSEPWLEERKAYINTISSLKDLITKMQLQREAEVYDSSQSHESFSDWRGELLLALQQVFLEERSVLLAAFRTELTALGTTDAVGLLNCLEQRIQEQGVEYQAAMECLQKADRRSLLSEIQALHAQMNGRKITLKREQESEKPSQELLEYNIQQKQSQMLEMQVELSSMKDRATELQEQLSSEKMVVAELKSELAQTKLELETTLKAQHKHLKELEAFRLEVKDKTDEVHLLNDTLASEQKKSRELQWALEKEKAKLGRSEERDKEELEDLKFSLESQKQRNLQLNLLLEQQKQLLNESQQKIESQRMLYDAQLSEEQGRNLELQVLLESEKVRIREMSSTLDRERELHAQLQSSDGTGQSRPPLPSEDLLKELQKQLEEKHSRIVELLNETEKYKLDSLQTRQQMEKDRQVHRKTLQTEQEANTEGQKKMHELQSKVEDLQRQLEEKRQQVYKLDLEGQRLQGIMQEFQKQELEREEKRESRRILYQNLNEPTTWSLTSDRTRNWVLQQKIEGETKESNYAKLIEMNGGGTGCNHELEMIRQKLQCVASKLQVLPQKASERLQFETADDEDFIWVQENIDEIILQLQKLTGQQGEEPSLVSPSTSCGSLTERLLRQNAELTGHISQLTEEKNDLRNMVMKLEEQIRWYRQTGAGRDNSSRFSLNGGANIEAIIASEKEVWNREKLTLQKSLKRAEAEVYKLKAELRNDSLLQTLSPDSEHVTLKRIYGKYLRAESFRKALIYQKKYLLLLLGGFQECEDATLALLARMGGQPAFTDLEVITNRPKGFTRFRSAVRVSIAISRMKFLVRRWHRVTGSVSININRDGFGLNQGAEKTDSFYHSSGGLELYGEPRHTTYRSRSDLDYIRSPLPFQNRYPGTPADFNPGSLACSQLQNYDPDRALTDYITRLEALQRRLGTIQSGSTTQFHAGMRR
UniProt Q13686, 292-315: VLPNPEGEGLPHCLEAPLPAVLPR
UniProt Q9NP73: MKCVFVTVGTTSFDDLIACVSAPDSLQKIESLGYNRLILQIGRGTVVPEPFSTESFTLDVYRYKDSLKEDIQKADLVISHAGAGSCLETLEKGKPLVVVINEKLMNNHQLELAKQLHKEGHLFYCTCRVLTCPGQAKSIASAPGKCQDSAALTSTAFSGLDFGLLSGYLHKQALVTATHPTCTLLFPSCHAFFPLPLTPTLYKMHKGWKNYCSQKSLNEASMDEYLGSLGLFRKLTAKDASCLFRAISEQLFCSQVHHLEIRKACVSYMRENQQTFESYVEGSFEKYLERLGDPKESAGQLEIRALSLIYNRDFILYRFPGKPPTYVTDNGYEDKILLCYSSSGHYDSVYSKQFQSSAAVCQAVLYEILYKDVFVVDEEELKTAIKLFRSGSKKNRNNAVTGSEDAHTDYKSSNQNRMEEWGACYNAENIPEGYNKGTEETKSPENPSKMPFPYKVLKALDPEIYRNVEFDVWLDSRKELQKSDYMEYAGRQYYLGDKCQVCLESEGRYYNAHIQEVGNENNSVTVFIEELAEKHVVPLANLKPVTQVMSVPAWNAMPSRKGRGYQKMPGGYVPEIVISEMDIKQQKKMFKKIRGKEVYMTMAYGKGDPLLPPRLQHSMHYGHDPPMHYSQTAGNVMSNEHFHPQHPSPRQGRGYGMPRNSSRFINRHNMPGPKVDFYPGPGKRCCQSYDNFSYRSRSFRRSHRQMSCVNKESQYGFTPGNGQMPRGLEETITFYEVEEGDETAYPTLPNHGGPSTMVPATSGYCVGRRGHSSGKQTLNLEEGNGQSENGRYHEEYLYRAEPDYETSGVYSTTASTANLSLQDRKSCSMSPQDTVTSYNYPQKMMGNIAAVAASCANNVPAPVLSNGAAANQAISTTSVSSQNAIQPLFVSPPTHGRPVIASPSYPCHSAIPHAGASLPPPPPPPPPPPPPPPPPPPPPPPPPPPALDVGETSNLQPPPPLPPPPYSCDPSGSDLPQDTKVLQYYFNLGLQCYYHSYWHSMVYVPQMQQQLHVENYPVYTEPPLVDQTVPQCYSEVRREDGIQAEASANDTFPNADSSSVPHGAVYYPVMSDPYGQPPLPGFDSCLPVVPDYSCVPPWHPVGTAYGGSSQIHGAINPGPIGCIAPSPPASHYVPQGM
UniProt O95433, 42-63: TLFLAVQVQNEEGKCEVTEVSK
UniProt Q86V24: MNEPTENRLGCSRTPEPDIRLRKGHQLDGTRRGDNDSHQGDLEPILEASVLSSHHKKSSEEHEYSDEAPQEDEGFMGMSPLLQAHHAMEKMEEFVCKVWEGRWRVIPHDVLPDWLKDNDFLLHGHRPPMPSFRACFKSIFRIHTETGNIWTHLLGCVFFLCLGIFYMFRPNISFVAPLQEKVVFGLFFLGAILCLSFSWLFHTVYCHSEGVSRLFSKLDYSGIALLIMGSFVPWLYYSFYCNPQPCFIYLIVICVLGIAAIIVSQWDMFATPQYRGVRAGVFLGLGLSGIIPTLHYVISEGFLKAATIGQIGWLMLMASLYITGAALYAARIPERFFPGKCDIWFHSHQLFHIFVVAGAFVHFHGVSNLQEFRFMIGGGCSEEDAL
UniProt Q9P2G1, 11-31: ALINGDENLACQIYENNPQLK
UniProt O60488, 361-380: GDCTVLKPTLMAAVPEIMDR
UniProt Q99798, 118-138: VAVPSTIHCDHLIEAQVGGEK
UniProt O00170: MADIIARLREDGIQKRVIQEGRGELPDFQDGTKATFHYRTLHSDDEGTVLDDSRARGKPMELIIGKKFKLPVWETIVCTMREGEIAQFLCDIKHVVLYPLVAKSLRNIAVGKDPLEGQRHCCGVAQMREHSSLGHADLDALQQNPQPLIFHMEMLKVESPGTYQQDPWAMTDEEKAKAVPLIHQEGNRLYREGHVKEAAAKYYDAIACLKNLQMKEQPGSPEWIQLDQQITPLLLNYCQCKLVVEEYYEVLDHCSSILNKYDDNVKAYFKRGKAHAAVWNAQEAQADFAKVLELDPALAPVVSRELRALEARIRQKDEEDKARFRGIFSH
UniProt O95831, whole entry, looked up: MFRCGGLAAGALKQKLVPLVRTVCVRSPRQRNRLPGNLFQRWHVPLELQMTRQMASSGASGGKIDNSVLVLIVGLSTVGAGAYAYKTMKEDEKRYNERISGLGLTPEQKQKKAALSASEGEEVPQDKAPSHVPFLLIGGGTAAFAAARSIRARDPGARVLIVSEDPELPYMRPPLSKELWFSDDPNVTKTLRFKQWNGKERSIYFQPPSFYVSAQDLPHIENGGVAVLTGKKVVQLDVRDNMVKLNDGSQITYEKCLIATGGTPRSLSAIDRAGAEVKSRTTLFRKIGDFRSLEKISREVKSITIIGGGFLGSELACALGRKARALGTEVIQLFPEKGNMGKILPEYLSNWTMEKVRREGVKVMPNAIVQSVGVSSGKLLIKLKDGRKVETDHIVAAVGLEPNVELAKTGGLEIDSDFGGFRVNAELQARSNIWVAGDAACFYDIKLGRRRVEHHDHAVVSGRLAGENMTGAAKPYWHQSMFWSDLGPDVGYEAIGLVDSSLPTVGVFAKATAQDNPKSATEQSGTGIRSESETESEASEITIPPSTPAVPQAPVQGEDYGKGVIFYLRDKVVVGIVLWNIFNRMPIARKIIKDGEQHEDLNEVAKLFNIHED
UniProt P49419, 475-500: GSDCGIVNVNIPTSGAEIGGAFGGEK
UniProt Q9UKA4, 214-234: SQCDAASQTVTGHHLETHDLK

The targets below were run with ClCC(=O)N[C@@H]1CCCc2ccccc12 (assay: log2 mean competition ratio of IA-DTB cysteine labelling (DMSO/compound) (log2 ratio); higher = stronger cysteine engagement by compound). Conditions: 50 µM; treatment time: 4 h; cell line lysate: HEK293T.
Procedure: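 IA-DTB competitive cysteine chemoproteomics in HEK293T RIPA lysate. Lysates were treated with compound 29 or 30 at 50 or 200 µM for 4 h, then IA-DTB (500 µM, 1 h), trypsin-digested, NeutrAvidin-enriched and analysed by diaPASEF. Competition ratio = intensity DMSO / intensity compound (n=4 treated, n=64 DMSO); binding: mean log2 CR ≥ 1 and p ≤ 0.05 plus QC filters. Target is the cysteine site.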

Row | Target | log2 mean competition ratio
1 | AKAP9 C870 (UniProt Q99996) | 0.173
2 | ALKBH1 C304 (UniProt Q13686) | 0.325
3 | ALG13 C132 (UniProt Q9NP73) | -0.13
4 | ACTR5 C48 (UniProt Q9H9F9) | -0.315
5 | ACSL3 C166 (UniProt O95573) | -0.17
6 | AHSA1 C56 (UniProt O95433) | -0.382
7 | AGPAT5 C252 (UniProt Q9NUQ2) | 0.144
8 | ACSF2 C77 (UniProt Q96CM8) | -0.0993
9 | ALDOA C339 | 0.0767
10 | ADNP C223 (UniProt Q9H2P0) | 0.0505
11 | AKAP2 C205 (UniProt Q9Y2D5) | 0.134
12 | ALDH1L2 C728 (UniProt Q3SY69) | 0.0628
13 | AJUBA C270 (UniProt Q96IF1) | 0.179
14 | AKAP13 C1414 (UniProt Q12802) | -0.496
15 | ADIPOR2 C96 (UniProt Q86V24) | -0.212
16 | AMOT C1047 (UniProt Q4VCS5) | -0.149
17 | ANKIB1 C21 (UniProt Q9P2G1) | -0.149
18 | ACSL4 C363 (UniProt O60488) | 0.41
19 | ALG2 C89 (UniProt Q9H553) | 0.156

Row | Target | log2 mean competition ratio
20 | AKAP17A C529 (UniProt Q02040) | -0.248
21 | AMOTL1 C623 (UniProt Q8IY63) | 0.02
22 | ALPK1 C512 (UniProt Q96QP1) | 0.00275
23 | ACO2 C126 (UniProt Q99798) | -0.0896
24 | AFAP1L1 C676 (UniProt Q8TED9) | -0.202
25 | ALG13 C242 (UniProt Q9NP73) | 0.0562
26 | AIP C208 (UniProt O00170) | 0.29
27 | AIFM1 C256 (UniProt O95831) | -0.0688
28 | AGTPBP1 C805 (UniProt Q9UPW5) | -0.148
29 | AKAP13 C2685 (UniProt Q12802) | -0.18
30 | ALDH7A1 C478 (UniProt P49419) | -0.15
31 | AHSA1 C301 (UniProt O95433) | 0.107
32 | ANKFY1 C742 (UniProt Q9P2R3) | -0.424
33 | AKAP11 C216 (UniProt Q9UKA4) | 0.106
34 | AHNAK C5502 (UniProt Q09666) | -0.135
35 | ADPRS C132 | -0.206
36 | AGTPBP1 C971 (UniProt Q9UPW5) | -0.0409
37 | AFDN C870 | 0.354

Looked up one by one from the entries so far, 2 records:
Row | Target | log2 mean competition ratio
32 | ANKFY1 C742 (UniProt Q9P2R3) | -0.424
25 | ALG13 C242 (UniProt Q9NP73) | 0.0562
